The text below walks through data of paper PMC12043393.

By UniProt entry, the sequences of proteins in these tests, tags left out.
UniProt Q9Y5S8: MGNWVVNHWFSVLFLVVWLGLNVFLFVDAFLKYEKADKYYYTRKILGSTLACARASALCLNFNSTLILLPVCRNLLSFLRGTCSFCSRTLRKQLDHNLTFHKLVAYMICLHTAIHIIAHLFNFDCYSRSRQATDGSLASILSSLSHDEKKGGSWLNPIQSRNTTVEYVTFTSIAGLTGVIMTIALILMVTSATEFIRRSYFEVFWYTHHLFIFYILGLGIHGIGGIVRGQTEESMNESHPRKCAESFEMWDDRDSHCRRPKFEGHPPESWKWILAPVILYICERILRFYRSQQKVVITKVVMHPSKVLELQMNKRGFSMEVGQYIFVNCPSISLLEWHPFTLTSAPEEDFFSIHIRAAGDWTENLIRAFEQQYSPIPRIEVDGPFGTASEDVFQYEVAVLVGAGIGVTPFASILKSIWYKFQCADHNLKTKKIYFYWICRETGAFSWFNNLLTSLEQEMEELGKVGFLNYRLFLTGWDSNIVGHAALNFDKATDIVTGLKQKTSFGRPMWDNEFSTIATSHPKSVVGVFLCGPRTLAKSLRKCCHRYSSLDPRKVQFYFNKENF

This assay deals with T1, FBXO38 (human (endogenous in HUVECs)) (UniProt Q6PIJ6).
T1 sequence: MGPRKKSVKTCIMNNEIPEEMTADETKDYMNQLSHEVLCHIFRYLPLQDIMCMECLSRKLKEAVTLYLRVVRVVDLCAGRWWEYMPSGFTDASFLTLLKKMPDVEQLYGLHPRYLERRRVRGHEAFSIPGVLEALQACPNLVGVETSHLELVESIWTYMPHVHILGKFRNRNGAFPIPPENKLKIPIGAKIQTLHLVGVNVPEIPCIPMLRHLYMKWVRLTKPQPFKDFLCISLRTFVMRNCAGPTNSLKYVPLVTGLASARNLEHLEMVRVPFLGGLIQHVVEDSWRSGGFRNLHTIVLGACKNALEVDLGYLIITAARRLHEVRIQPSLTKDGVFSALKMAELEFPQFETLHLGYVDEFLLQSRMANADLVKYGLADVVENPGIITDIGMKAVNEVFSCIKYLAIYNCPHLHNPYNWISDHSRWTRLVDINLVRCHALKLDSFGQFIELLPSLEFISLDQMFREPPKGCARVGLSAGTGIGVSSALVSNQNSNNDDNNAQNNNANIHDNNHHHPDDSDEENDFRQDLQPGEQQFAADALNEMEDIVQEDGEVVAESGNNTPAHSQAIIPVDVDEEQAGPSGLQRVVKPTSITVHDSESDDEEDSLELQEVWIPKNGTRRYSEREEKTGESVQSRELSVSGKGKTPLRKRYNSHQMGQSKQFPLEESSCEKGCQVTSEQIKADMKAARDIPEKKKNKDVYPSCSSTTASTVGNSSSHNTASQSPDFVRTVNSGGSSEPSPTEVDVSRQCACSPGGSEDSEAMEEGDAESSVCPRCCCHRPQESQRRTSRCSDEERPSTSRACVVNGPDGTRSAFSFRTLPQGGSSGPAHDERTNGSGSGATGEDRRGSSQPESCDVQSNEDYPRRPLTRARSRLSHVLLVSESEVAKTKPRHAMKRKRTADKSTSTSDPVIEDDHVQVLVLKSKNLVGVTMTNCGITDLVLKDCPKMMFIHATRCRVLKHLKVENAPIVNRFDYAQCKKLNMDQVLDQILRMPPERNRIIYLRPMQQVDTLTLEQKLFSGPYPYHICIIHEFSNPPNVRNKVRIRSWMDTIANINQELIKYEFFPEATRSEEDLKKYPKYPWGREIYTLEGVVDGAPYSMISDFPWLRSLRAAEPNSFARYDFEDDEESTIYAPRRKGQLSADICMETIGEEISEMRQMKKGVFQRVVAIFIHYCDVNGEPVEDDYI
Put plainly: co-IP; cells lysed in IP buffer with protease/phosphatase inhibitors; lysates immunoprecipitated overnight at 4°C with agarose-conjugated FBXO38 antibody or IgG control; Western blot. (A western blot detects proteins with antibodies after separation by electrophoresis.)

These are yes or no findings as the source states them, for the method shown. In cells and extracts the contact can be indirect. Some results given as binding are weak or reduced against the parent protein; the word gives no strength.

With Nox1 (from UniProt Q9Y5S8 1-564), the binding result is listed as “binds”.
